What all share (experiment): interferometric light scattering microscopy (iSCAM); OneMP (Refeyn), 525 nm laser; protein 15–400 nM in sodium and magnesium-free DPBS pH 7.4; 19–20°C; contrasts converted into masses with NativeMark; self-association, oligomeric species in solution; both purified
Assay [1] concerns the target Human recombinant SP-A2 (surfactant protein A2) (human) (UniProt Q8IWL1).
Assay [2] concerns the target T1, Human recombinant SP-D (surfactant protein D) (human), P35247.
T1 chain: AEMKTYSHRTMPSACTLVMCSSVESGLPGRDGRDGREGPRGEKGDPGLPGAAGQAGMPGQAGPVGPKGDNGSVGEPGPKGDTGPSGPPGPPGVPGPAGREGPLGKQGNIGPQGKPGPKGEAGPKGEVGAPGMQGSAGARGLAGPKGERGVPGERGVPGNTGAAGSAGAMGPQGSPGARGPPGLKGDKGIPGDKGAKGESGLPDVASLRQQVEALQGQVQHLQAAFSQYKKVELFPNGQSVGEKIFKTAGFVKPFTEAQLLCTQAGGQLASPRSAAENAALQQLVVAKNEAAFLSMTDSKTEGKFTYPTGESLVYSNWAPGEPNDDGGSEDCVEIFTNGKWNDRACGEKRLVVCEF
The following applies: remark: other sources report otherwise.

Sequences of proteins named here, by UniProt entry; tags and fusion partners are left off. Residues count along the entry.
UniProt Q8IWL1, residues 21-248: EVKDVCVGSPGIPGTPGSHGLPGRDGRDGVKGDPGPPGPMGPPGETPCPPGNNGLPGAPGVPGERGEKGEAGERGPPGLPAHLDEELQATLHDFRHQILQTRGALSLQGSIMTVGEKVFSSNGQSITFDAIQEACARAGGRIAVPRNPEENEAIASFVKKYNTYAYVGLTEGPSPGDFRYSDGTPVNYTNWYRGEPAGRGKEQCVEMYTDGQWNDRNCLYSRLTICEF

For assay [3], the target named is T2, Human SP-D isolated from bronchoalveolar lavage fluid of patients with pulmonary alveolar proteinosis (human), P35247.
T2 chain: T1 chain
The note with it: remark: other sources report otherwise.

These are yes or no findings as the source states them, for the method shown. Some entries that bind do so weakly or less than the wild type.

“Human recombinant SP-A2 (surfactant protein A2) (from UniProt Q8IWL1 21-248)”: in assay [1], the binding result is “binds”.

B1: Human recombinant SP-D (surfactant protein D), P35247 21-375 (protein)
chain: T1 chain
As for B1, the binding entry in assay [2] is given as “binds”.

B2: Human SP-D isolated from bronchoalveolar lavage fluid of patients with pulmonary alveolar proteinosis, P35247 21-375 (protein)
chain: T1 chain
On to B2, for which, in assay [3], the binding result is “binds”.

These data come from publication PMC11380953, “Multivalent, calcium-independent binding of surfactant protein A and D to sulfated glycosaminoglycans of the alveolar epithelial glycocalyx” (American Journal of Physiology - Lung Cellular and …, 2024).
